# Library screening results

Data taken from ChEMBL document CHEMBL3988442, “University of Dundee, Small-Polar-MMV Screening Library” (2021).

The filed quantity is “Percent Effect” (%). The controls that fix the scale are not given in the record; negative values are as filed. This is an unselected part of the compounds tested. Two or more numbers in one place are separate tests of the same structure; such repeats can differ widely.

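Viability assay of Plasmodium falciparum sporozoites; the read-out is not stated. The concentration is filed as 10 mM, unlikely as a test dose, so the dose is not known. Direction is inferred from retests: higher values go with lower viability. Strong results were mostly tested again. Size under these conditions: about 34,000 compounds, about 280 of them at 50% or above in at least one test.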

* Cl.NC(=O)COc1ccc(CNCc2ccc(F)cc2F)cc1 : -18.14%
* Cc1noc(C)c1C(=O)NCc1ccc(N2CCOCC2)nc1 : 2.826%
* Cn1cccc1-c1cc(C(=O)N2CCCC2c2nccs2)[nH]n1 (stereo unspecified) : 3.197%
* CNc1nc(C(=O)N2CCCCC2c2ccc(CN(C)C)cc2)cs1 (stereo unspecified) : -19.07%
* COCCN1CCN(CC(O)c2ccc(OC(F)(F)F)cc2)CC1 (stereo unspecified) : 14.81%
* COc1cccc(-n2cc(CN(C)C(=O)c3cnc(O)cn3)cn2)c1 : 70.55% and 77.42%
* Cc1nc(C2CCCN2C(=O)c2ccc3c(c2)nc(C)n3C)no1 (stereo unspecified) : 14.92%
* Cc1cnn(CCNCc2csc(-c3ccco3)n2)c1 : 13.8%
* CC(=O)Nc1c(C)cnn1Cc1cc(F)ccc1F : 3.433%
* CCc1nc(-c2noc3ccc(C(=O)NCCN(C)C)cc23)co1 : -3.552%
* Cc1ncccc1Oc1cncc(C2CCCN2Cc2cncn2C)n1 (stereo unspecified) : 0.966%
* Cc1c(NC(=O)c2noc3c2CCCC3)cnn1C : -6.986%
* CC1(C)COCCN1C(=O)CCc1nc(-c2ccc(Cl)cc2)no1 : -7.135%
* CN1CCCC1CNC(=O)CCOc1ccc(Br)cc1 (stereo unspecified) : 1.887%
* CN1CCOC(CN(C(=O)CCCn2cccn2)c2nccs2)C1 (stereo unspecified) : 11.31%
* Cc1cc(-c2ccccc2C(=O)O)nc(C2CCCCN2C)n1 (stereo unspecified) : -57.56%
* Cc1cnc(CCNC(=O)C2CN(C(=O)Cc3ccc(F)cc3)C2)s1 : 3.017%
* O=C(O)C(F)(F)F.O=C(O)C(F)(F)F.[H][C@@]12CCN(Cc3ccncc3)C(=O)[C@@]1([H])CN(Cc1ccc(C)s1)C2 : 6.392%
* N#Cc1ccc(C(=O)N2CCC3(CC2)CC3)cc1 : 16.02%
* Cc1ncncc1C(=O)N1CCOC(c2nc(C(C)C)n[nH]2)C1 (stereo unspecified) : 1.526%
* Cn1nc(C(C)(C)C)cc1NC(=O)Cn1ccccc1=O : -11.68%
* C[C@@H]1CN(C(=O)c2cn(CCN3CCCCC3)nn2)C[C@H](C)O1 : -10.19%
* O=C(O)C(F)(F)F.[H][C@@]12CCNC[C@]1(C(=O)NCc1cnc(C)cn1)CCO2 : 7.212%
* CN(C)Cc1nc2c(o1)CN(C(=O)c1ccncc1F)C2 : -5.537%
* CC(C)c1nc(C2CCCN2CCNS(C)(=O)=O)no1 (stereo unspecified) : -6.088%
* Cc1ccc(-c2noc(CN3CCC(N4CCNC4=O)CC3)n2)cc1 : -10.02%
* Cc1nc(N2CCOCC2)nc2c1CN(C(=O)Cc1ccccn1)CC2 : -0.8724%
* Cc1ccc(OCc2nnc(SCC3CCCN(C)C3)o2)cc1 (stereo unspecified) : -28.57%
* Cc1cc(C)c2c(OCC(=O)NC(C)C)nn(C)c2n1 : -8.588%
* Nc1nccnc1C1CN(C(=O)c2ccnnc2)CCO1 (stereo unspecified) : 1.404%
* CC(C)(C)c1cnc(CN2CCC(CN3CCOCC3)CC2)o1 : 21.77%
* FC(F)(F)C1CCCn2c(CNCc3ccsc3)nnc21 (stereo unspecified) : 1.073%
* Cn1ccnc1CCC1CCCCN1Cc1cnc(N2CCCC2)nc1 (stereo unspecified) : -22.4%
* Cc1cnn(CC2CCCN2Cc2nnc(Cc3ccccc3)o2)c1 (stereo unspecified) : 6.08%
* O=c1cc2c(nn1CN1CCN(c3cccc(Cl)c3)CC1)CCC2 : -16.45%
* O=C(O)C(F)(F)F.O=C(O)C(F)(F)F.[H][C@@]12OCCC[C@]1([H])N(C(=O)c1ccc(C)nc1)C[C@@H]2N1CCOCC1 : -7.089%
* COc1cccc(NC(=O)N(CCO)Cc2ccsc2)c1 : -9.63%
* N#CCCN(Cc1ccco1)C(=O)Cc1ccc(-n2cnnn2)cc1 : 4.94%
* CC(=O)NC1CCN(c2cc(C3CCNCC3)ccn2)CC1.Cl.Cl : 1.937%
* Cc1csc(N2CCN(C(=O)c3c(C)oc(C)c3C)CC2)n1 : 3.681%
* O=C(Cc1ccc(F)cc1)N1CCn2cc(Cn3cncn3)nc2C1 : 0.4296%
* Cc1nn(C)cc1NC(=O)CC1CCN(CCc2ccccc2)CC1 : 1.124%
* Cc1ncc(CN2CCC(O)(c3ccccc3F)CC2)cn1 : -4.404%
* CC(C)NC1CCc2c(ccc(=O)n2CC2CC2)C1.O=C(O)C(F)(F)F (stereo unspecified) : -5.122%
* COc1cc(CNCC(O)c2ccc(C)cc2)cc2c1OCCO2.Cl (stereo unspecified) : 1.42%
* Cc1cc(C)n(CC(C)NC(=O)C2(c3ccc(F)cc3)CC2)n1 (stereo unspecified) : 0.3293%
* [H][C@]12CCC(=O)N[C@@]1(C)CCCCN2C(=O)c1cn2c(C)cccc2n1 : -0.593%
* Cc1nc(CN2CCCC(CCc3ccccc3C(F)(F)F)C2)no1 (stereo unspecified) : -3.567%
* Cc1cccc(OCCC(=O)NC(C)c2nnc3n2CCC3)c1 (stereo unspecified) : 6.632%
* O=C(O)C(F)(F)F.O=C(O)C(F)(F)F.[H][C@@]12C[C@@H](OCC)CN1CCN(Cc1ccc(C)o1)C2 : -1.599%
* Cn1cc(C2=NOC(C(=O)NC3(c4ccccc4F)CCCC3)C2)cn1 (stereo unspecified) : 5.244%
* Cc1ccc2[nH]c3c(c2c1)CN(C(=O)CN(C)CC1OCCO1)CC3 : -449.7%
* O=C(Cc1cccc(F)c1)N1CCCCC1c1ccn2ccnc2n1 (stereo unspecified) : -0.1185%
* CCOCC1CN(Cc2cnn(C)c2)Cc2cnn(C)c21 (stereo unspecified) : -7.786%
* [H][C@@]12C[C@@H](OCc3ccccn3)CN1CCN(C(=O)c1cnccn1)C2 : -18.29%
* Cc1cccc(N2CCC3(CCCN(C(=O)Cc4cccnc4)C3)C2)n1 (stereo unspecified) : -14.73%

Repeated from the top, 4 entries:

| Compound | effect |
|---|---|
| `Cl.NC(=O)COc1ccc(CNCc2ccc(F)cc2F)cc1` | -18.14 |
| `Cc1noc(C)c1C(=O)NCc1ccc(N2CCOCC2)nc1` | 2.826 |
| `Cn1cccc1-c1cc(C(=O)N2CCCC2c2nccs2)[nH]n1` (stereo unspecified) | 3.197 |
| `CNc1nc(C(=O)N2CCCCC2c2ccc(CN(C)C)cc2)cs1` (stereo unspecified) | -19.07 |